Experimental data published in paper PMC6783653, “TIP30 counteracts cardiac hypertrophy and failure by inhibiting translational elongation” (EMBO Molecular Medicine, 2019).

Amino acid sequences for entries named in this document (tags omitted).
UniProt A7VJC2: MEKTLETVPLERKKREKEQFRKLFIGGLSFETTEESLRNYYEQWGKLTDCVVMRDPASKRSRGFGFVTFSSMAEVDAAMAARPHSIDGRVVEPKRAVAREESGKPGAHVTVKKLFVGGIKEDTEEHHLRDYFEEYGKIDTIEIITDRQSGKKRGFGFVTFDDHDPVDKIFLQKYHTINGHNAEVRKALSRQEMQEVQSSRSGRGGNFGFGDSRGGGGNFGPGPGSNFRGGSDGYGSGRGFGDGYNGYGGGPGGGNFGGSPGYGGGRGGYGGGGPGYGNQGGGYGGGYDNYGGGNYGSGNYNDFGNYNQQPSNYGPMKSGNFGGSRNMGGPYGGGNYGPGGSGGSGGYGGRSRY
UniProt P62630: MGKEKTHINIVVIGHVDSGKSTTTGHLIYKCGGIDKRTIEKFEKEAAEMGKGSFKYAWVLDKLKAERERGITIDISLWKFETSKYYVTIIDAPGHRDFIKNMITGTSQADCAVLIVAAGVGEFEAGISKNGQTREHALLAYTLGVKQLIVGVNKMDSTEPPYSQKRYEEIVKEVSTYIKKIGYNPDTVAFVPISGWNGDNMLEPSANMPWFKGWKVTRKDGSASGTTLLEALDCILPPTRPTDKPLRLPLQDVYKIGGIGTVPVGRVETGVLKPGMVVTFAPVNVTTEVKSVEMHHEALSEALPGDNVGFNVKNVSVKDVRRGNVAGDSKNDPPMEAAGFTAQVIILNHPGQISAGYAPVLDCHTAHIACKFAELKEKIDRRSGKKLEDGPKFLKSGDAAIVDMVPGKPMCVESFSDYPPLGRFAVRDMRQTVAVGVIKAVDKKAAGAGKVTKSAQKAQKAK
UniProt P13383: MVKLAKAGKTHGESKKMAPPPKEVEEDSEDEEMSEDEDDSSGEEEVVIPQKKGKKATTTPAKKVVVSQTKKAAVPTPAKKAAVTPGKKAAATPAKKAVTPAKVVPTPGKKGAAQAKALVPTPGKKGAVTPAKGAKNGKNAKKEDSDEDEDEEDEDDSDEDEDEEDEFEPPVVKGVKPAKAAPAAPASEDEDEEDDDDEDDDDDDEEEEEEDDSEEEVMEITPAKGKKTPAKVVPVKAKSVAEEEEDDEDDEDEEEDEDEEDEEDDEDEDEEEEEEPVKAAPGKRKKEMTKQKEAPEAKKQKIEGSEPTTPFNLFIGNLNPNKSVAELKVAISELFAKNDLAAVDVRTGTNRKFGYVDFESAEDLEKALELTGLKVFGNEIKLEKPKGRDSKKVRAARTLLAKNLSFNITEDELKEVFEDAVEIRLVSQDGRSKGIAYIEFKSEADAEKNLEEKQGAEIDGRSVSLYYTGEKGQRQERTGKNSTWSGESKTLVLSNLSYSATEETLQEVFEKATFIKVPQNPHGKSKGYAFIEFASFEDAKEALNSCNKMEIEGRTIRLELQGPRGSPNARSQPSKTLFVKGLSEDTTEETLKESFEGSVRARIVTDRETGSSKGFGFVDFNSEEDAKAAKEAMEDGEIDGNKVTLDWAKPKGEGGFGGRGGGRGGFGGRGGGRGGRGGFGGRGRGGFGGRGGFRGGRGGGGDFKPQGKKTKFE

Molecular target: T1, GST-TIP30 (full-length TIP30, GST fusion, bacterial) (rat) (UniProt B0BNF8)
T1 sequence: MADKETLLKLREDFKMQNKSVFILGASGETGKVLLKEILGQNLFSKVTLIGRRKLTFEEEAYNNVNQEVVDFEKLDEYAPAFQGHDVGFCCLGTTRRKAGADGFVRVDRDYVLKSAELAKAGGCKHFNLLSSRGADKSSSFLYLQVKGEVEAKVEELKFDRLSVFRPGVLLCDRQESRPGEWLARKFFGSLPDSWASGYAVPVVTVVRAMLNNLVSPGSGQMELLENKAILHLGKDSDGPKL
Test: affinity purification with mass spectrometry; GST or GST-TIP30 pull-down from neonatal rat cardiomyocyte lysate; bands apparent only in the GST-TIP30 lane excised from SDS-PAGE and identified by mass spectrometry; only the target purified

Row | binding | Substance
1 | binds | endogenous heterogeneous nuclear ribonucleoprotein A2/B1 of neonatal rat cardiomyocytes (from UniProt A7VJC2 1-353)
2 | binds | endogenous eEF1A1 of neonatal rat cardiomyocytes (from UniProt P62630 1-462)
3 | binds | endogenous nucleolin of neonatal rat cardiomyocytes (from UniProt P13383 1-713)

These are yes or no findings as the source states them, for the method shown. Binding seen in cells or lysates may run through a third protein. Here binding means that the protein was enriched with, or labelled near, the bait; the list need not be complete. Sequences can lack the tags named with a protein.
